These are yes or no findings as the source states them, for the method shown. Binding seen in cells or lysates may run through a third protein. Some results given as binding are weak or reduced against the parent protein; the word gives no strength.
Biological target: GST-hTNF (residues 77-233) (human) (UniProt P01375)
Test: pull-down; WT and MIB2 KO HeLa cells (similar in HCT116) stimulated with GST-TNF (1 μg/ml), with or without BV6 (0.1 μM); lysed in IP buffer; TNFR-containing complex I precipitated with glutathione-Sepharose overnight at 4 °C; immunoblot; only the target purified

Sequences of proteins named here, by UniProt entry; tags and fusion partners are left off. Residues count along the entry.
UniProt P01375, residues 77-233: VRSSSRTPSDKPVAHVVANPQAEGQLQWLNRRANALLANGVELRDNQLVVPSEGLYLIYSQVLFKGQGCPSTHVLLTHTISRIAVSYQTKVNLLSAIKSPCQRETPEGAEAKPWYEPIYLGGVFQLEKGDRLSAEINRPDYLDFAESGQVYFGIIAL

B1: endogenous TAK1 (enzyme, UniProt O43318 1-606)
chain: MSTASAASSSSSSSAGEMIEAPSQVLNFEEIDYKEIEVEEVVGRGAFGVVCKAKWRAKDVAIKQIESESERKAFIVELRQLSRVNHPNIVKLYGACLNPVCLVMEYAEGGSLYNVLHGAEPLPYYTAAHAMSWCLQCSQGVAYLHSMQPKALIHRDLKPPNLLLVAGGTVLKICDFGTACDIQTHMTNNKGSAAWMAPEVFEGSNYSEKCDVFSWGIILWEVITRRKPFDEIGGPAFRIMWAVHNGTRPPLIKNLPKPIESLMTRCWSKDPSQRPSMEEIVKIMTHLMRYFPGADEPLQYPCQYSDEGQSNSATSTGSFMDIASTNTSNKSDTNMEQVPATNDTIKRLESKLLKNQAKQQSESGRLSLGASRGSSVESLPPTSEGKRMSADMSEIEARIAATTAYSKPKRGHRKTASFGNILDVPEIVISGNGQPRRRSIQDLTVTGTEPGQVSSRSSSPSVRMITTSGPTSEKPTRSHPWTPDDSTDTNGSDNSIPMAYLTLDHQLQPLAPCPNSKESMAVFEQHCKMAQEYMKVQTEIALLLQRKQELVAELDQDEKDQQNTSRLVQEHKKLLDENKSLSTYYQQCKKQLEVIRSQQQKRQGTS
In the case of B1, the binding is reported as “binds”.

B2: endogenous TBK1 (enzyme, UniProt Q9UHD2 1-729)
chain: MQSTSNHLWLLSDILGQGATANVFRGRHKKTGDLFAIKVFNNISFLRPVDVQMREFEVLKKLNHKNIVKLFAIEEETTTRHKVLIMEFCPCGSLYTVLEEPSNAYGLPESEFLIVLRDVVGGMNHLRENGIVHRDIKPGNIMRVIGEDGQSVYKLTDFGAARELEDDEQFVSLYGTEEYLHPDMYERAVLRKDHQKKYGATVDLWSIGVTFYHAATGSLPFRPFEGPRRNKEVMYKIITGKPSGAISGVQKAENGPIDWSGDMPVSCSLSRGLQVLLTPVLANILEADQEKCWGFDQFFAETSDILHRMVIHVFSLQQMTAHKIYIHSYNTATIFHELVYKQTKIISSNQELIYEGRRLVLEPGRLAQHFPKTTEENPIFVVSREPLNTIGLIYEKISLPKVHPRYDLDGDASMAKAITGVVCYACRIASTLLLYQELMRKGIRWLIELIKDDYNETVHKKTEVVITLDFCIRNIEKTVKVYEKLMKINLEAAELGEISDIHTKLLRLSSSQGTIETSLQDIDSRLSPGGSLADAWAHQEGTHPKDRNVEKLQVLLNCMTEIYYQFKKDKAERRLAYNEEQIHKFDKQKLYYHATKAMTHFTDECVKKYEAFLNKSEEWIRKMLHLRKQLLSLTNQCFDIEEEVSKYQEYTNELQETLPQKMFTASSGIKHTMTPIYPSSNTLVEMTLGMKKLKEEMEGVVKELAENNHILERFGSLTMDGGLRNVDCL
With B2 the binding was “binds”.
